# Test results reported in PubChem BioAssay AID2685 (National Center for Advancing Translational Sciences (NCATS), 2010).
# Values joined by “and” are separate entries in the source; they are usually repeats but may differ in a detail not shown here. Equal entries are not always repeated. The list shows a part of the results. Shown are side measurements of this screen, not its main read-out; they come without a call. The list favours compounds with an active or inconclusive main result. The note in brackets gives the kind of curve behind each potency; many fits are weak.
# Assay: qHTS Assay for Lipid Storage Modulators in Drosophila S3 Cells;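 on cell number change: cells counted by Cell Tracker Red CMTPX staining in the red channel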
# Conditions: BODIPY lipid droplet fluorescence, 18-24 h; for cell number change: measured here: cell count max response, cells fed with added oleic acid
# Procedure, shortened: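 Drosophila S3 cells got compounds at several concentrations plus oleic acid (400 uM solution). Laser-scanning cytometry with 488 nm excitation read lipid droplets at 500-530 nm and cells at 575-640 nm. Percent activity was relative to 20 uM Triacsin C.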
# [1] = measured here: lipid fluorescence (Fed channel) AC50, cells fed with added oleic acid
# [2] = measured here: cell number channel AC50, cells fed with added oleic acid
SMILES,cell number change,AC50 [1],AC50 [2]
C/C=C(\C)C(=O)N[C@@H](C)CN1C2=NC[C@H](C(C)C)N2C[C@H]1Cc1ccc(OC)cc1,-4.26%,,
O=C(NCCS(=O)(=O)NCc1ccccc1Cl)c1ccc2c(c1)OCO2,4.47%,"5.17 µM [falling, single point]",
COC(=O)C(Cc1cnc(Cl)s1)(C(=O)OC)c1ccc([N+](=O)[O-])cc1[N+](=O)[O-],25.4%,"1.46 µM [rising, partial curve]",
COc1ccc(-n2nc3c(c2NC(=O)c2ccc(S(=O)(=O)N4CCOCC4)cc2)CS(=O)C3)cc1 (stereo not drawn),29%,,
CC(=O)N(CCC(Cc1ccccc1)c1ccc2c(c1)OCO2)Cc1ccccc1F (stereo not drawn),-36.4%,"7.31 µM [falling, partial curve]","14.6 µM [falling, partial curve]"
COc1ccc(OC)c(CCNC(=O)c2ccccc2NC(=O)C2=C(C)OCCS2)c1,-23.4%,"23.1 µM [falling, partial curve]",
CS(=O)(=O)Oc1ccc(Br)c2cccnc12,53%,"18.4 µM [rising, partial curve]","14.6 µM [rising, partial curve]"
NC(=O)CC(NC(=O)Cc1ccc(Br)cc1)c1ccc(N2CCC(N3CCCCC3)CC2)c([N+](=O)[O-])c1 (stereo not drawn),6.89%,"8.2 µM [falling, partial curve]",
COc1cc(C(=O)Nc2nc(C)c(Cc3ccc4c(c3)OCO4)s2)cc(OC)c1OC,10.3%,,"0.731 µM [rising, partial curve]"
CC(C)c1nc(-c2ccc([N+](=O)[O-])cc2)cs1,,"2.59 µM [rising, partial curve, poor fit]",
Cc1nc2ccccc2cc1C(=O)O,1.86%,,
CC(C#N)(Nc1ccc(Cl)cc1)c1cccnc1 (stereo not drawn),-50.4%,,"29.1 µM [falling, single point]"
O=C(N=C1SC2CS(=O)(=O)CC2N1Cc1ccc(F)cc1)C1CCCO1 (stereo not drawn),-0.382%,"20.6 µM [rising, single point]",
COc1ccc(-c2sccc2C(C)C(=O)O)cc1 (stereo not drawn),8.16%,"6.51 µM [falling, single point]",
CC(C(=O)NC1CC(C)(C)NC(C)(C)C1)c1ccc([N+](=O)[O-])cc1 (stereo not drawn),-14.1%,"0.00461 µM [falling, full curve, poor fit]","0.116 µM [falling, full curve, poor fit]"
Cc1ccc(C)c(S(=O)(=O)N2CCN(C(=O)c3cccnc3)CC2)c1,,"35.5 µM [falling, single point]",
CCOc1ccc(N2C(=O)C(c3ccccc3)=C(c3nc4ccccc4s3)C2NC(C)=O)cc1 (stereo not drawn),,"1.84 µM [rising, partial curve]",
Cc1ccccc1OCc1n(CC(=O)OC2CC(C)CCC2C(C)C)c2ccccc2[n+]1C (stereo not drawn),-80.3% and -69.4%,"29.1 µM [falling, single point]","32.6 µM [falling, partial curve, poor fit]"

SMILES,cell number change,AC50 [1],AC50 [2]
CCC(C)[C@H](NC(=O)N1CC(=O)Nc2ccccc21)C(=O)N[C@H](Cc1ccccc1)C(=O)O (stereo partly drawn),,"2.06 µM [rising, partial curve, poor fit]",
COCCNC(=O)Cn1cnc2ccc(S(=O)(=O)N3CCC(C)CC3)cc2c1=O,-30.4%,,"13 µM [falling, partial curve, poor fit]"
COc1cc2nc(Nc3ccc(C)c(Cl)c3)nc(N)c2cc1OC,-26.4%,"29.1 µM [rising, partial curve]",
CN(C)c1nc(Oc2ccc(N)cc2)nc(N(C)C)n1,,"1.46 µM [rising, full curve]","0.0731 µM [rising, full curve, poor fit]"
CCC(=O)Nc1ccccc1C(=O)NC1CCCCC1,45.1%,,"29.1 µM [rising, single point]"
Cc1ccc(F)cc1NC(=O)c1ccc(NS(=O)(=O)c2ccc(Br)s2)cc1,3.26%,,
O=C(CN1C(=O)S/C(=C\C=C\c2ccccc2)C1=O)Nc1ccc(O)cc1,50%,,"16.4 µM [rising, single point]"
CCn1c(SCc2nc(-c3ccccc3)no2)nc2ccccc21,,"4.61 µM [falling, single point]",
CCCn1c(SCC(=O)NCc2ccc(C)cc2)n[nH]c1=O,,"0.103 µM [falling, full curve, poor fit]",
O=C(CSc1nnc(SCc2cccc3ccccc23)s1)Nc1ccc(C(=O)O)cc1,8.21%,"1.16 µM [falling, partial curve, poor fit]",
Cc1c(NC(=O)C(C)n2cc([N+](=O)[O-])cn2)c(=O)n(-c2ccccc2)n1C (stereo not drawn),-15.1%,"0.146 µM [falling, full curve, poor fit]","0.0184 µM [falling, full curve, poor fit]"
CCCCSc1nnc2c(n1)OC(C(=O)c1ccccc1)Nc1ccccc1-2 (stereo not drawn),9.1%,"6.51 µM [rising, single point]",
Cc1cc(Cl)ccc1NC(=O)CN1CCCC1,3.94%,"0.0517 µM [rising, full curve, poor fit]",
CN(Cc1ccccc1)S(=O)(=O)c1ccc(Cl)c(C(=O)NCc2cccnc2)c1,-8.75%,,"6.51 µM [falling, single point]"
CCCn1c(=N)n(CC(O)COc2ccc(C)cc2)c2ccccc21 (stereo not drawn),-22.4%,"29.1 µM [falling, single point]",
CC(Oc1ccc(F)cc1)C(=O)N(Cc1ccccc1)c1c(N)n(Cc2ccccc2)c(=O)[nH]c1=O (stereo not drawn),40.7%,"4.61 µM [falling, single point]","32.6 µM [rising, single point]"
COCCOC(=O)c1c(C)oc2cc(Br)c(OCC(N)=O)cc12,23.7%,"5.17 µM [rising, full curve]",
COCCNc1nnc(SCC(=O)NC(=O)c2ccccc2OC)s1,7.92%,,"4.11 µM [rising, partial curve, poor fit]"

# Looked up by compound from the entries so far (2):
SMILES,cell number change,AC50 [1],AC50 [2]
COCCOC(=O)c1c(C)oc2cc(Br)c(OCC(N)=O)cc12,23.7%,"5.17 µM [rising, full curve]",
COCCNC(=O)Cn1cnc2ccc(S(=O)(=O)N3CCC(C)CC3)cc2c1=O,-30.4%,,"13 µM [falling, partial curve, poor fit]"
